Results taken from PubChem BioAssay AID248 (DTP/NCI, 2004).
The list shows only some results of the screen, not a fair sample: it is rich in T/C values a quarter to a half above the control, in often repeated tests (any T/C) and in doses without a T/C. Other doses and runs of a compound stand elsewhere. T/C gives the treated animals as a percentage of the vehicle group. Some entries give survivors of the animals treated and no T/C: the source files T/C as zero there, which appears to mark a toxic dose or a test without result, not a measured value. Some survivor counts are full or nearly so, which does not show that the dose was tolerated: survival well below the control is almost never listed, so the zero probably covers shortened survival too. Survivors were counted at the toxicity check, usually on the fifth day, unless a day is given; later deaths do not show. Schedules are NCI's codes, read here as Q, the interval in days (D) or hours (H), X, the number of doses. For survival time, this PubChem deposit counts one and a half times the control or more as active, and values a quarter to a half above the control carry no call in these data; other NCI protocols may use other cut-offs. Some schedules carry Z or #; the key to these is not given.

Test system: L1210 leukemia ip in BDF1 mice, survival T/C
Experiment: NCI In Vivo Anticancer Drug Screen. Data for tumor model L1210 Leukemia (intraperitoneal) in B6D2F1 (BDF1) mice
Settings: T/C endpoint: mean survival time, higher T/C = longer survival; for T/C: vehicle: carboxymethylcellulose (CMC)
[1] = dose: 400.0 mg/kg/injection, schedule: Q01DX009 (ip), vehicle: saline with Tween-80
[2] = dose: 400.0 mg/kg/injection, schedule: Q04DX003 (ip), vehicle: saline with Tween-80
[3] = dose: 400.0 mg/kg/injection, schedule: Q04DX003 (ip), vehicle: saline
[4] = dose: 400.0 mg/kg/injection, schedule: Q04DX002 (ip), vehicle: saline with Tween-80
[5] = dose: 300.0 mg/kg/injection, schedule: Q01DX001 (ip), vehicle: saline

O=S(=O)(F)c1cc(Cl)c(O)c(S(=O)(=O)F)c1 was tested, and the survivor count (dose: 200.0 mg/kg/injection, schedule: Q01DX009 (ip), vehicle: Klucel (hydroxypropylcellulose) (HPC)) was 0 of 6 and the survivor count (dose: 400.0 mg/kg/injection, schedule: Q01DX009 (ip), vehicle: Klucel (hydroxypropylcellulose) (HPC)) was 0 of 6.
In the case of CC(C)(C)NC(=O)Nc1ccccn1, the survivor count [1] is reported as 2 of 3 and the survivor count [2] is reported as 3 of 6.
With CC1CN(N)CC(C)N1Cc1ccccc1 (stereo not given) the survivor count (dose: 25.0 mg/kg/injection, schedule: Q01DX009 (ip), vehicle: water) was 0 of 6, the survivor count (dose: 50.0 mg/kg/injection, schedule: Q01DX009 (ip), vehicle: water) was 0 of 6 and the survivor count (dose: 100.0 mg/kg/injection, schedule: Q01DX009 (ip), vehicle: water) was 0 of 6. The survivor count (dose: 200.0 mg/kg/injection, schedule: Q01DX009 (ip), vehicle: water) was 0 of 6 and the survivor count (dose: 400.0 mg/kg/injection, schedule: Q01DX009 (ip), vehicle: water) was 0 of 6.
For NC(N)=Nc1ccccc1, the survivor count [3] was 1 of 3.
In the case of CCCC(Cl)C(=O)Nc1cccc(O)c1 (stereo not given), the survivor count [1] is reported as 1 of 6.
With CN1CCN(C(=S)Nc2ccccc2)CC1 the survivor count (dose: 200.0 mg/kg/injection, schedule: Q01DX001 (ip), vehicle: Klucel (hydroxypropylcellulose) (HPC)) was 3 of 6 and the survivor count (dose: 400.0 mg/kg/injection, schedule: Q01DX001 (ip), vehicle: Klucel (hydroxypropylcellulose) (HPC)) was 3 of 6.
With O=C(O)c1ccnc(-c2ccc(Cl)cc2)c1 the survivor count [3] was 2 of 6.
With Nc1nc(SCc2ccccc2)c2ncn(CCCl)c2n1 the T/C (dose: 20.0 mg/kg/injection, schedule: Q01DX Z (ip)) was 142 % of control, the T/C (dose: 45.0 mg/kg/injection, schedule: Q01DX Z (ip)) was 146 % of control and the T/C (dose: 160.0 mg/kg/injection, schedule: Q01DX001 (ip)) was 125 % of control.
With O=C(O)c1cccc(S)c1 the survivor count [4] was 1 of 3.
In the case of CC(=O)c1cc(C)c(C)s1, the survivor count (dose: 100.0 mg/kg/injection, schedule: Q01DX009 (ip), vehicle: saline with Tween-80) is reported as 6 of 6 and the survivor count [2] is reported as 4 of 6.
CN(C)CCCCC(C#N)(c1ccccc1)c1ccccc1 was tested, and the survivor count (dose: 60.0 mg/kg/injection, schedule: Q01DX001 (ip), vehicle: saline) was 1 of 6, the survivor count (dose: 75.0 mg/kg/injection, schedule: Q01DX001 (ip), vehicle: saline) was 0 of 6 and the survivor count (dose: 150.0 mg/kg/injection, schedule: Q01DX001 (ip), vehicle: saline) was 0 of 6. The survivor count [5] was 0 of 6.
In the case of CCOC(=O)c1c[nH]c2cc(OCC3CC3)c(OCC3CC3)cc2c1=O, the survivor count (dose: 200.0 mg/kg/injection, schedule: Q01DX009 (ip), vehicle: saline with Tween-80) is reported as 6 of 6 and the survivor count [1] is reported as 5 of 6.
CC1CCCCN1Cc1ccccc1COC(=O)c1cccc(Cl)c1 (stereo not given) was tested, and the survivor count (dose: 25.0 mg/kg/injection, schedule: Q04DX002 (ip), vehicle: saline with Tween-80) was 3 of 3, the survivor count (dose: 100.0 mg/kg/injection, schedule: Q04DX002 (ip), vehicle: saline with Tween-80) was 3 of 3 and the survivor count (dose: 200.0 mg/kg/injection, schedule: Q04DX002 (ip), vehicle: saline with Tween-80) was 1 of 3. For the same compound, the survivor count [4] was 0 of 3.
For N#CC(OC(=O)c1ccccc1)c1ccc([N+](=O)[O-])cc1 (stereo not given), the survivor count (dose: 200.0 mg/kg/injection, schedule: Q01DX001 (ip), vehicle: saline) was 1 of 4 and the survivor count (dose: 400.0 mg/kg/injection, schedule: Q01DX001 (ip), vehicle: saline) was 0 of 4.
Brc1cccc2c1C[n+]1ccccc1-2 was tested, and the survivor count [5] was 2 of 6.
For CCC1(CC)C(=O)NC(=O)N(C)C1=O, the survivor count (dose: 400.0 mg/kg/injection, schedule: Q04DX002 (ip), vehicle: Klucel (hydroxypropylcellulose) (HPC)) was 3 of 3.
CCOC(=O)C1=C(O)c2c(sc(C)c2C)N(S(=O)(=O)c2ccc(C)cc2)CC1 was tested, and the survivor count [1] was 6 of 6.
